PubChem BioAssay AID1224828 – NIAID – 2016
Shown is an unselected part of about 17,000 deposited reagents. Of all reagents, 762 (4.5%) are marked active. 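Active calls include both raised and lowered p65 entry, mostly lowered; wells with fewer than 50 cells lack a z-score.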 The raw values are shown without normalisation.

Aim: 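Find genes required for NF-kappaB p65 moving into the nucleus after LPS in mouse macrophages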 (primary screen)
System: mouse RAW264.7 G9 macrophage reporter cells (GFP-p65, Tnf promoter-mCherry)
Reagents: siRNA pool against mouse genes, 100 nM
Time to read-out: 2 days siRNA transfection, then 40 min LPS before fixation
Conditions: LPS (Salmonella minnesota R595) at 10 ng/ml
Detection: 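Imaged p65 nuclear translocation ratio, normalised to the plate median, converted to robust z-scores and averaged across two replicates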
Scale: p65 translocation robust z-score: higher = more nuclear NF-kappaB p65 after LPS than the plate median; nuclear/cytoplasmic p65 ratio: higher = more nuclear NF-kappaB p65
Hit rule: 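Active if robust z is above 3.3 (negative regulators) or below -1.56, the Tlr4 control median (positive regulators); activity score 50 or more; control wells not called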
Meaning of the calls: active = hit (p65 shift raised or lowered); inactive = no clear change

| gene symbol | p65 translocation robust z-score | nuclear/cytoplasmic p65 ratio, rep 1 | nuclear/cytoplasmic p65 ratio, rep 2 | low cell count flag | call |
| --- | --- | --- | --- | --- | --- |
| Numa1 (GeneID 101706) | 0.48 | 1.66 | 1.71 | enough cells to score | inactive |
| Sprr2g (GeneID 20761) | 0.78 | 1.6 | 1.25 | enough cells to score | inactive |
| Cyb561d2 (GeneID 56368) | -1.57 | 1.24 | 1.2 | enough cells to score | active |
| Ppih (GeneID 66101) | 0.41 | 1.42 | 1.27 | enough cells to score | inactive |
| Troap (GeneID 78733) | 0.85 | 1.61 | 1.64 | enough cells to score | inactive |
| Mageh1 (GeneID 75625) | 0.36 | 1.72 | 1.61 | enough cells to score | inactive |
| Sp1 (GeneID 20683) | -1.55 | 1.33 | 1.33 | enough cells to score | inactive |
| Plscr1 (GeneID 22038) | 0.88 | 1.49 | 1.29 | enough cells to score | inactive |
| Slc48a1 (GeneID 67739) | – | 1.39 | 1.1 | fewer than 50 cells per well; well left out of scoring | inactive |
| Spink1 (GeneID 20730) | -0.69 | 1.42 | 1.49 | enough cells to score | inactive |
| Arhgef18 (GeneID 102098) | -0.81 | 1.5 | 1.5 | enough cells to score | inactive |
| Cdh22 (GeneID 104010) | 1.82 | 1.84 | 2.11 | enough cells to score | inactive |
| Tnfsf14 (GeneID 50930) | -1.69 | 1.27 | 1.33 | enough cells to score | active |
| Gsto1 (GeneID 14873) | -0.45 | 1.3 | 1.39 | enough cells to score | inactive |
| Mrpl24 (GeneID 67707) | -1.17 | 1.64 | 1.38 | enough cells to score | inactive |
| Slc9d1 (GeneID 234076) | -0.06 | 1.43 | 1.57 | enough cells to score | inactive |
| Ptch1 (GeneID 19206) | 0.91 | 1.66 | 1.5 | enough cells to score | inactive |
| Cysltr2 (GeneID 70086) | -0.41 | 1.5 | 1.47 | enough cells to score | inactive |
| Slc25a12 (GeneID 78830) | 0.53 | 1.48 | 1.32 | enough cells to score | inactive |
| Rbp2 (GeneID 19660) | 0.83 | 1.63 | 1.23 | enough cells to score | inactive |
| Akr1c13 (GeneID 27384) | -0.03 | 1.54 | 1.74 | enough cells to score | inactive |
| Srpra (GeneID 67398) | 0.04 | 1.51 | 1.6 | enough cells to score | inactive |
| Cd8b1 (GeneID 12526) | -1.37 | 1.36 | 1.21 | enough cells to score | inactive |
| Phka1 (GeneID 18679) | 0.77 | 1.92 | 1.39 | enough cells to score | inactive |
| Klra20 (GeneID 93967) | -0.43 | 1.44 | 1.32 | enough cells to score | inactive |
| Arhgap25 (GeneID 232201) | 0.65 | 1.68 | 1.62 | enough cells to score | inactive |
| Dnd1 (GeneID 213236) | 1.81 | 1.69 | 1.61 | enough cells to score | inactive |
| Ocrl (GeneID 320634) | -0.07 | 1.66 | 1.54 | enough cells to score | inactive |
| Plekho1 (GeneID 67220) | 0.66 | 1.48 | 1.56 | enough cells to score | inactive |

7 entries from above, reduced to “nuclear/cytoplasmic p65 ratio, rep 1”:
Mrpl24 (GeneID 67707): 1.64
Slc9d1 (GeneID 234076): 1.43
Ptch1 (GeneID 19206): 1.66
Cysltr2 (GeneID 70086): 1.5
Slc25a12 (GeneID 78830): 1.48
Rbp2 (GeneID 19660): 1.63
Akr1c13 (GeneID 27384): 1.54

The list goes on.
| gene symbol | p65 translocation robust z-score | nuclear/cytoplasmic p65 ratio, rep 1 | nuclear/cytoplasmic p65 ratio, rep 2 | low cell count flag | call |
| --- | --- | --- | --- | --- | --- |
| Parp2 (GeneID 11546) | 0.19 | 1.68 | 1.61 | enough cells to score | inactive |
| Zfp819 (GeneID 74400) | – | 1.27 | 1.12 | fewer than 50 cells per well; well left out of scoring | inactive |
| Tubb3 (GeneID 22152) | 0.1 | 1.55 | 1.5 | enough cells to score | inactive |
| Hfm1 (GeneID 330149) | -1.89 | 1.25 | 1.26 | enough cells to score | active |
| Mrgprb3 (GeneID 404238) | 1.22 | 2 | 1.76 | enough cells to score | inactive |
| Tmem234 (GeneID 76799) | -0.08 | 1.37 | 1.48 | enough cells to score | inactive |
| Slc5a6 (GeneID 330064) | -1.05 | 1.26 | 1.16 | enough cells to score | inactive |
| Ak2 (GeneID 11637) | -0.35 | 1.56 | 1.4 | enough cells to score | inactive |
| Arhgef25 (GeneID 52666) | -0.81 | 1.45 | 1.65 | enough cells to score | inactive |
| Penk (GeneID 18619) | 0.35 | 1.43 | 1.52 | enough cells to score | inactive |
| Cyp21a1 (GeneID 13079) | 0.14 | 1.56 | 1.34 | enough cells to score | inactive |
| Mapk15 (GeneID 332110) | 1.23 | 1.58 | 1.72 | enough cells to score | inactive |
| Dlx5 (GeneID 13395) | 1.2 | 1.36 | 1.51 | enough cells to score | inactive |
| Pdlim7 (GeneID 67399) | -0.86 | 1.26 | 1.2 | enough cells to score | inactive |
| Kazald1 (GeneID 107250) | -0.39 | 1.56 | 1.61 | enough cells to score | inactive |
| Pstk (GeneID 214580) | – | 1.18 | 1.25 | fewer than 50 cells per well; well left out of scoring | inactive |
| Map2k4 (GeneID 26398) | 3.55 | 2.06 | 1.82 | enough cells to score | active |
| Scarf2 (GeneID 224024) | 0.35 | 1.6 | 1.53 | enough cells to score | inactive |
| Nlgn3 (GeneID 245537) | -0.19 | 1.8 | 1.4 | enough cells to score | inactive |
| Ifne (GeneID 230405) | -0.07 | 1.55 | 1.41 | enough cells to score | inactive |
| Foxb1 (GeneID 64290) | -0.63 | 1.35 | 1.3 | enough cells to score | inactive |
| Capn3 (GeneID 12335) | 1.09 | 1.73 | 1.82 | enough cells to score | inactive |
| Or9k2 (GeneID 258672) | – | 1.55 | 1.44 | fewer than 50 cells per well; well left out of scoring | inactive |
| Bcl2a1b (GeneID 12045) | -0.16 | 1.61 | 1.57 | enough cells to score | inactive |
| Nid2 (GeneID 18074) | 0.16 | 1.63 | 1.28 | enough cells to score | inactive |
| Tmem54 (GeneID 66260) | – | 1.57 | 1.35 | fewer than 50 cells per well; well left out of scoring | inactive |
| Lyzl4 (GeneID 69032) | -1 | 1.18 | 1.29 | enough cells to score | inactive |
| Nsmce2 (GeneID 68501) | 1.01 | 1.58 | 1.69 | enough cells to score | inactive |
| Or8b4 (GeneID 258794) | -0.26 | 1.38 | 1.26 | enough cells to score | inactive |
| Commd7 (GeneID 99311) | 0 | 1.66 | 1.69 | enough cells to score | inactive |
